In article PMC12052135 one finds binding data, which are given here for 4 molecules.

Chains of the proteins cited; added tags and fusions are not shown. Residues count along the entry.
UniProt Q63524, residues 21-201: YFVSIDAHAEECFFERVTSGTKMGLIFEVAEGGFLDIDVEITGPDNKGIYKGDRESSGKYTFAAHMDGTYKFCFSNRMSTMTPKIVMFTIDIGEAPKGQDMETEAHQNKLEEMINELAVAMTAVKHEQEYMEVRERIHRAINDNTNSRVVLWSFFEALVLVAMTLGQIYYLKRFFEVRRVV

Results are given in words; binding and its absence hold for the method and conditions named. In cells and extracts the contact can be indirect. Some binding calls cover weakened binding; strength is not graded here. Where a sequence is shown, tags or fusion partners need not be part of it.

First the molecules themselves.
T1: GFP-CD59 (C94S) (UniProt P13987)
T1 sequence: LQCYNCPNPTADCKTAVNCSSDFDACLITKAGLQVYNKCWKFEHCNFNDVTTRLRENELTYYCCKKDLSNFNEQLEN

B1: TMP21 (protein, UniProt Q63584 32-219)
chain: ISFHLPVNSRKCLREEIHKDLLVTGAYEITDQSGGAGGLRTHLKITDSAGHILYAKEDATKGKFAFTTEDYDMFEVCFESKGTGRIPDQLVILDMKHGVEAKNYEEIAKVEKLKPLEVELRRLEDLSESIVNDFAYMKKREEEMRDTNESTNTRVLYFSIFSMFCLIGLATWQVFYLRRFFKAKKLIE
B2: calnexin (protein, UniProt P35565 21-591)
chain: HDGHDDDMIDIEDDLDDVIEEVEDSKSKSDTSTPPSPKVTYKAPVPTGEVYFADSFDRGSLSGWILSKAKKDDTDDEIAKYDGKWEVDEMKETKLPGDKGLVLMSRAKHHAISAKLNKPFLFDTKPLIVQYEVNFQNGIECGGAYVKLLSKTSELNLDQFHDKTPYTIMFGPDKCGEDYKLHFIFRHKNPKTGVYEEKHAKRPDADLKTYFTDKKTHLYTLILNPDNSFEILVDQSVVNSGNLLNDMTPPVNPSREIEDPEDRKPEDWDERPKIADPDAVKPDDWDEDAPSKIPDEEATKPEGWLDDEPEYIPDPDAEKPEDWDEDMDGEWEAPQIANPKCESAPGCGVWQRPMIDNPNYKGKWKPPMIDNPNYQGIWKPRKIPNPDFFEDLEPFRMTPFSAIGLELWSMTSDIFFDNFIISGDRRVVDDWANDGWGLKKAADGAAEPGVVGQMLEAAEERPWLWVVYILTVALPVFLVILFCCSGKKQSNAMEYKKTDAPQPDVKDEEGKEEEKNKGDEEEEEEKLEEKQKSDAEEDGGTGSQDEEDSKPKAEEDEILNRSPRNRKPRRE
B3: TMED9 (protein, UniProt Q5I0E7 38-235)
chain: LYFHIGETEKKCFIEEIPDETMVIGNYRTQLYDKQREEYQPATPGLGMFVEVKDPEDKVILARQYGSEGRFTFTSHTPGEHQICLHSNSTKFSLFAGGMLRVHLDIQVGEHANDYAEIAAKDKLSELQLRVRQLVEQVEQIQKEQNYQRWREERFRQTSESTNQRVLWWSILQTLILVAIGVWQMRHLKSFFEAKKLV
modifications: N-linked glycosylation (LMW and sialylated HMW forms)

The target in the test is T1, GFP-CD59 (C94S). Put plainly: co-IP.
For the molecule TMED2 (from UniProt Q63524 21-201), the binding result is recorded as “binds”.

Turning to B1, the binding result is listed as “binds”.

As for B2, the binding result is “binds”.

B3: the binding result was “binds”.
